Results on eight compounds are retold here after PubChem BioAssay AID220 (DTP/NCI, 2004).

The list is a part of this screen's results and no random one: it gathers tests that were run many times, whatever their T/C, doses with no T/C, and many T/C values between a quarter and a half above the control. Further doses and runs are listed elsewhere. T/C: endpoint of the treated group in % of that of the vehicle group. Schedule codes are those of the source, read here as Q, the interval in days (D) or hours (H), X, the number of doses. Some entries give survivors of the animals treated and no T/C: the source holds a T/C of zero for them, seemingly a mark for toxic or unscored doses. Survivors were counted at the toxicity check, usually on the fifth day, unless a day is given; later deaths do not show. Some entries were tested several times; the values are given in rising order.

This experiment concerns CD8F1 mice, subcutaneous mammary adenocarcinoma, T/C%. Description: NCI In Vivo Anticancer Drug Screen. Data for tumor model Mammary Adenocarcinoma CD8F1 (subcutaneous) in CD8F1. The conditions noted are these: higher T/C = larger tumour. In a few lines:
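Transplantable tumors were established in mice, animals were dosed with compound or vehicle, and survival or tumor size was then measured in both groups. The treated result was divided by the control result.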

With `NC(=S)Nc1cccc2ccccc12`, the survivor count was 3 of 10 on day 36 (T/C endpoint: median tumor weight change, dose: 125.0 mg/kg/injection, schedule: Q01DX001 (ip), vehicle: saline with Tween-80); 0 of 10 on day 36 (T/C endpoint: median tumor weight change, dose: 250.0 mg/kg/injection, schedule: Q01DX001 (ip), vehicle: saline with Tween-80); 0 of 10 on day 36 (T/C endpoint: median tumor weight change, dose: 500.0 mg/kg/injection, schedule: Q01DX001 (ip), vehicle: saline with Tween-80).

With `[Cl][Pt+2][Cl].[NH-]C1CCC1.[NH2-]`, the survivor count runs as follows: (T/C endpoint: median tumor weight change, dose: 25.0 mg/kg/injection, schedule: Q01DX001 (ip), vehicle: suspension in saline) 6 of 10 on day 31; (T/C endpoint: median tumor weight change, dose: 50.0 mg/kg/injection, schedule: Q01DX001 (ip), vehicle: suspension in saline) 3 of 10 on day 31; (T/C endpoint: median tumor weight change, dose: 100.0 mg/kg/injection, schedule: Q01DX001 (ip), vehicle: suspension in saline) 0 of 10 on day 31.

For the compound `COc1cc2c[n+](C)c3c(c2cc1OC)Cc1cc2c(cc1-3)OCO2`, the survivor count (T/C endpoint: median tumor weight change, dose: 250.0 mg/kg/injection, schedule: Q01DX001 (ip), vehicle: suspension in saline) is 2 of 10 on day 29; the survivor count (T/C endpoint: median tumor weight change, dose: 500.0 mg/kg/injection, schedule: Q01DX001 (ip), vehicle: suspension in saline) is given as 0 of 10 on day 29; the survivor count (T/C endpoint: median tumor weight change, dose: 1000.0 mg/kg/injection, schedule: Q01DX001 (ip), vehicle: suspension in saline) is reported as 0 of 10 on day 29.

Regarding `Cc1nnc2ncccn12`, under “T/C endpoint: median tumor weight change, dose: 125.0 mg/kg/injection, schedule: Q01DX001 (ip), vehicle: saline, evaluated on day 27”, the T/C was 125 % of control. The survivor count by setting is: (T/C endpoint: median tumor weight change, dose: 500.0 mg/kg/injection, schedule: Q01DX001 (ip), vehicle: saline) 6 of 10 on day 27; (T/C endpoint: median tumor weight change, dose: 1000.0 mg/kg/injection, schedule: Q01DX001 (ip), vehicle: saline) 0 of 10 on day 27; (T/C endpoint: median tumor weight change, dose: 2000.0 mg/kg/injection, schedule: Q01DX001 (ip), vehicle: saline) 0 of 10 on day 27.

For `CCCCCn1c(C)cc(/C=C\c2ccc3cc(C)ccc3[n+]2C)c1C`, the survivor count by setting is: (T/C endpoint: median tumor weight (est.), dose: 0.62 mg/kg/injection, schedule: Q07DX005 (ip), vehicle: Klucel (hydroxypropylcellulose) (HPC)) 4 of 10 on day 30; (T/C endpoint: median tumor weight (est.), dose: 1.25 mg/kg/injection, schedule: Q07DX005 (ip), vehicle: Klucel (hydroxypropylcellulose) (HPC)) 3 of 10 on day 30; (T/C endpoint: median tumor weight (est.), dose: 2.5 mg/kg/injection, schedule: Q07DX005 (ip), vehicle: Klucel (hydroxypropylcellulose) (HPC)) 5 of 10 on day 30; (T/C endpoint: median tumor weight (est.), dose: 5.0 mg/kg/injection, schedule: Q07DX005 (ip), vehicle: Klucel (hydroxypropylcellulose) (HPC)) 3 of 10 on day 30; (T/C endpoint: median tumor weight (est.), dose: 10.0 mg/kg/injection, schedule: Q07DX005 (ip), vehicle: Klucel (hydroxypropylcellulose) (HPC)) 0 of 10 on day 30; (T/C endpoint: median tumor weight (est.), dose: 20.0 mg/kg/injection, schedule: Q07DX005 (ip), vehicle: Klucel (hydroxypropylcellulose) (HPC)) 0 of 10 on day 30.

On to `CCOc1cc2c(cc1C(C)c1ccc(OC)cc1)OCO2` (stereo unspecified), for which, for the setting “T/C endpoint: median tumor weight change, dose: 1000.0 mg/kg/injection, schedule: Q01DX001 (ip), vehicle: distilled water + alcohol”, the survivor count is recorded as 5 of 10 on day 28.

For the compound `O=c1n[n+]([O-])ccn1C1OC(CO)C(O)C1O` (stereo unspecified), for the setting “T/C endpoint: median tumor weight (est.), dose: 400.0 mg/kg/injection, schedule: Q07DX005 (ip), vehicle: saline, evaluated on day 32”, the T/C is 126 % of control.

As to `COC(=O)C12OCC34C(CC5C(C)=CC(=O)C(O)C5(C)C3C(O)C1O)OC(=O)C(OC(=O)CC(C)C)C24` (stereo unspecified), the survivor count reads like this: (T/C endpoint: median tumor weight (est.), dose: 0.5 mg/kg/injection, schedule: Q07DX005 (ip), vehicle: saline + alcohol) 1 of 10 on day 30; (T/C endpoint: median tumor weight (est.), dose: 1.0 mg/kg/injection, schedule: Q07DX005 (ip), vehicle: saline + alcohol) 6 of 10 on day 30; (T/C endpoint: median tumor weight (est.), dose: 2.0 mg/kg/injection, schedule: Q07DX005 (ip), vehicle: saline + alcohol) 4 of 10 on day 30; (T/C endpoint: median tumor weight (est.), dose: 4.0 mg/kg/injection, schedule: Q07DX005 (ip), vehicle: saline + alcohol) 2 of 10 on day 30 and 6 of 10 on day 30; (T/C endpoint: median tumor weight (est.), dose: 8.0 mg/kg/injection, schedule: Q07DX005 (ip), vehicle: saline + alcohol) 1 of 10 on day 30.
